Laboratory results published in US8058332B2, “Phosphorus-sulfur FR additives and polymer systems containing same” (priority 2006, dated 2011).

Experiment: Limiting Oxygen Index (LOI), ASTM D 2863, of polystyrene blends with the FR additive
[1] = plaques, blend of 3% of the product in 97% polystyrene

“2,2′,2″,2″′-[1,2,4,6-phenylenetetra(methylthio)]tetra[5,5-dimethyl-1,3,2-dioxaphosphorinane]-2,2′,2″,2″′-sulfide [Example 7]” showed an LOI (plaques, blend of 2.8% of the product in 97.2% polystyrene) of 24.3%.
`CC1(C)COP(=S)(SC/C=C/CSP2(=S)OCC(C)(C)CO2)OC1` [Example 1, 2,2′-[2-butene-1,4-diylbis(methylthio)]bis[5,5-dimethyl-1,3,2-dioxaphosphorinane]-2,2′-disulfide] gave an LOI (plaques, melt blend with polystyrene resin at 4:96 weight ratio) of 26.5% and an LOI (polystyrene foam, 4.2% by weight FR additive, bulk density ~2.5 pcf) of 24.7%.
Work on `CC1(C)COP(=S)(SCc2ccccc2CSP2(=S)OCC(C)(C)CO2)OC1` [Example 4, 2,2′-[1,2-phenylenebis(methylthio)]bis[5,5-dimethyl-1,3,2-dioxaphosphorinane]-2,2′-disulfide] yielded an LOI [1] of 23% and an LOI (polystyrene foam, blend of 3% of the product in 97% polystyrene) of 23.3%.
With `CC1(C)COP(=O)(SCc2ccccc2CSP2(=O)OCC(C)(C)CO2)OC1` [Example 5, 2,2′-[1,2-phenylenebis(methylthio)]bis[5,5-dimethyl-1,3,2-dioxaphosphorinane]-2,2′-dioxide] the LOI (plaques, blend of 2.5% of the product in 97.5% polystyrene) was 21.5.
For `Cc1c(CSP2(=S)OCC(C)(C)CO2)c(C)c(CSP2(=S)OCC(C)(C)CO2)c(C)c1CSP1(=S)OCC(C)(C)CO1` [Example 8, 2,2′,2″-[2,4,6-trimethyl-1,3,5-phenylenetris(methylthio)]tris[5,5-dimethyl-1,3,2-dioxaphosphorinane]-2,2′,2″-disulfide], the LOI (plaques, blend of 3.1% of the product in 96.9% polystyrene) was 24.2% and the LOI (polystyrene foam (2.54 pcf), blend of 3.1% of the product in 96.9% polystyrene) was 27%.
For `CC1(C)COP(=S)(SCP(=O)(CSP2(=S)OCC(C)(C)CO2)CSP2(=S)OCC(C)(C)CO2)OC1` [Example 16], the LOI (plaques, blend of 2.7% of the product in 97.3% polystyrene (Example 16)) was 22.8.
`CC1(C)COP(=S)(Sc2nc(SP3(=S)OCC(C)(C)CO3)nc(SP3(=S)OCC(C)(C)CO3)n2)OC1` [Example 17, 2,2′,2″-[s-triazine-2,4,6-tris(thio)]tris[(5,5-dimethyl-1,3,2-dioxaphosphorinane)-2,2′,2″-sulfide]] gave an LOI (plaques, blend of 2.7% of the product in 97.3% polystyrene (Example 17)) of 23.8.
Work on `CC1(C)COP(=S)(N(Cc2ccccc2)P2(=S)OCC(C)(C)CO2)OC1` [Example 18, N-benzyl-N-(5,5-dimethyl-2-sulfido-1,3,2-dioxaphosphorinan-2-yl)-5,5-dimethyl-1,3,2-dioxaphosphorinan-2-amine-2-sulfide] yielded an LOI (plaques, blend of 4.8% of the product in 95.2% polystyrene (Example 18)) of 23.
Compound `CC1(C)COP(=S)(Cc2ccccc2CP2(=S)OCC(C)(C)CO2)OC1` [Example 19, [1,2-phenylenebis(methylene)]bis[5,5-dimethyl[1,3,2]dioxaphosphorinane]2,2′-disulfide] has an LOI (plaques, blend of 5.1% of the product in 94.9% polystyrene) of 22.8.
Work on `CC1(C)COP(=S)(SCCCCSP2(=S)OCC(C)(C)CO2)OC1` [Example 20, 2,2′-[1,4-butylbis(methylthio)]bis[5,5-dimethyl-1,3,2-dioxaphosphorinane]-2,2′-disulfide] yielded an LOI (plaques, blend of 2.9% of the product in 97.1% polystyrene) of 22.6.
In the case of `CC1(C)COP(=S)(SC2CC3CC2CC3SP2(=S)OCC(C)(C)CO2)OC1` (centres unmarked) [Example 21, 2,2′-[bicyclo[2.2.1]heptane-2,5-diylbis(thio)]bis[5,5-dimethyl-1,3,2-dioxaphosphorinane]2,2′-disulfide], the LOI [1] is reported as 23.
With `CCOC(=O)CC(SP1(=S)OCC(C)(C)CO1)C(=O)OCC` (centres unmarked) [Example 23] the LOI (plaques, blend of 4.6% of the product in 95.4% polystyrene (Example 23)) was 23.2.
For `CC(CCCCCCC(C)SP1(=S)OCC(C)(C)CO1)SP1(=S)OCC(C)(C)CO1` (centres unmarked) [Example 24, 2,2′-[decane-2,9-diylbis(thio)]bis(5,5-dimethyl-1,3,2-dioxaphosphorinane)2,2′-disulfide], the LOI (plaques, blend of 6.3% of the product in 93.7% polystyrene) was 24.3.
In the case of `CC1(C)COP(=S)(SC(c2ccccc2)c2ccccc2)OC1` [Example 25, 2-[(diphenylmethyl)thio]-5,5-dimethyl-1,3,2-dioxaphosphorinane 2-sulfide], the LOI (plaques, blend of 8.3% of the product in 91.7% polystyrene) is reported as 26.
`O=P1(SC/C=C/CSP2(=O)Oc3ccccc3-c3ccccc32)Oc2ccccc2-c2ccccc21` (centres unmarked) [Example 26] gave an LOI (plaques, blend of 6.4% of the product in 93.6% polystyrene) of 24.8.
Work on `CC1(C)COP(=O)(Cc2ccc(CSP3(=S)OCC(C)(C)CO3)cc2)OC1` [Example 28, 2-({4-[(5,5-dimethyl-2-oxido-1,3,2-dioxaphosphorinan-2-yl)methyl]benzyl}thio)-5,5-dimethyl-1,3,2-dioxaphosphorinane-2-sulfide] yielded an LOI (plaques, blend of 4.8% of the product in 95.2% polystyrene (Example 28)) of 21.7.
With `O=P1(SCc2ccccc2CSP2(=O)Oc3ccccc3-c3ccccc32)Oc2ccccc2-c2ccccc21` (centres unmarked) [Example 29, 6,6′-[1,2-phenylenebis(methylenethio)]bis(6H-dibenz[c, e][1,2]oxaphosphorin) 6,6′-dioxide] the LOI (plaques, blend of 7% of the product in 93% polystyrene) was 24.8.
Work on `Cc1c(CSP2(=O)Oc3ccccc3-c3ccccc32)c(C)c(CSP2(=O)Oc3ccccc3-c3ccccc32)c(C)c1CSP1(=O)Oc2ccccc2-c2ccccc21` (centres unmarked) [Example 30, 6,6′,6″-[(2,4,6-trimethylbenzene-1,3,5-triyl)tris(methylenethio)]tris(6H-dibenzo-[c, e][1,2]oxaphosphorin) 6,6′,6″-trioxide] yielded an LOI (plaques, blend of 6.2% of the product in 93.8% polystyrene) of 24.8%.
For `CC(COCC(COCC(C)SP1(=S)OCC(C)(C)CO1)(COCC(C)SP1(=S)OCC(C)(C)CO1)COCC(C)SP1(=S)OCC(C)(C)CO1)SP1(=S)OCC(C)(C)CO1` (centres unmarked) [Example 31], the LOI (plaques, blend of 4.6% of the product in 95.4% polystyrene (Example 31)) was 23.5.
`CC1(C)COP(=S)(SCc2c(CSP3(=S)OCC(C)(C)CO3)c(CSP3(=S)OCC(C)(C)CO3)c(CSP3(=S)OCC(C)(C)CO3)c(CSP3(=S)OCC(C)(C)CO3)c2CSP2(=S)OCC(C)(C)CO2)OC1` [Example 33, 2,2′,2″,2″′,2″″′,2″″″-[benzene-1,2,3,4,5,6-hexaylhexakis(methylenethio)]hexakis(5,5-dimethyl-1,3,2-dioxaphosphorinane) 2,2′,2″,2″′,2′″″,2″″″-hexasulfide] showed an LOI (plaques, blend of 5.3% of the product in 94.7% polystyrene) of 24.3.
`CC1(C)COP(=S)(SCCC(=O)NCNC(=O)CCSP2(=S)OCC(C)(C)CO2)OC1` [Example 36] gave an LOI (plaques, blend of 6.9% of the product in 93.1% polystyrene) of 24.5.
Compound `CC1(C)COP(=S)(SC(c2ccccc2)c2cccc(C(SP3(=S)OCC(C)(C)CO3)c3ccccc3)c2)OC1` (centres unmarked) [Example 37, 2,2′-{1,3-phenylenebis[(phenylmethylene)thio]}bis(5,5-dimethyl-1,3,2-dioxaphosphorinane) 2,2′-disulfide] has an LOI (plaques, blend of 8.1% of the product in 91.9% polystyrene) of 25.8%.
In the case of `S=P1(CC(c2ccccc2)c2ccccc2)OCC2(CO1)COP(=S)(SC(c1ccccc1)c1ccccc1)OC2` (centres unmarked) [Example 38], the LOI (plaques, blend of 8.2% of the product in 91.8% polystyrene) is reported as 26.7%.
